Results are given in words; binding and its absence hold for the method and conditions named. In cells and extracts the contact can be indirect. Some binding calls cover weakened binding; strength is not graded here.
Target: hSSB1, endogenous (human (endogenous in HeLa)) (UniProt Q9BQ15)
Experiment: proximity ligation

By UniProt entry, the sequences of proteins in these tests, tags left out.
UniProt Q9BQ15: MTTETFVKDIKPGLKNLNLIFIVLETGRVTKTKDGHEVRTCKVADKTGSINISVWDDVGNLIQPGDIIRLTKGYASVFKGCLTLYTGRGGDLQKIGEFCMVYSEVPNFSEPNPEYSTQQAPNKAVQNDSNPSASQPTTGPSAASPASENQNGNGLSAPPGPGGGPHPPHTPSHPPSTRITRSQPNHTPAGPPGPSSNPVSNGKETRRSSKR
UniProt P00519: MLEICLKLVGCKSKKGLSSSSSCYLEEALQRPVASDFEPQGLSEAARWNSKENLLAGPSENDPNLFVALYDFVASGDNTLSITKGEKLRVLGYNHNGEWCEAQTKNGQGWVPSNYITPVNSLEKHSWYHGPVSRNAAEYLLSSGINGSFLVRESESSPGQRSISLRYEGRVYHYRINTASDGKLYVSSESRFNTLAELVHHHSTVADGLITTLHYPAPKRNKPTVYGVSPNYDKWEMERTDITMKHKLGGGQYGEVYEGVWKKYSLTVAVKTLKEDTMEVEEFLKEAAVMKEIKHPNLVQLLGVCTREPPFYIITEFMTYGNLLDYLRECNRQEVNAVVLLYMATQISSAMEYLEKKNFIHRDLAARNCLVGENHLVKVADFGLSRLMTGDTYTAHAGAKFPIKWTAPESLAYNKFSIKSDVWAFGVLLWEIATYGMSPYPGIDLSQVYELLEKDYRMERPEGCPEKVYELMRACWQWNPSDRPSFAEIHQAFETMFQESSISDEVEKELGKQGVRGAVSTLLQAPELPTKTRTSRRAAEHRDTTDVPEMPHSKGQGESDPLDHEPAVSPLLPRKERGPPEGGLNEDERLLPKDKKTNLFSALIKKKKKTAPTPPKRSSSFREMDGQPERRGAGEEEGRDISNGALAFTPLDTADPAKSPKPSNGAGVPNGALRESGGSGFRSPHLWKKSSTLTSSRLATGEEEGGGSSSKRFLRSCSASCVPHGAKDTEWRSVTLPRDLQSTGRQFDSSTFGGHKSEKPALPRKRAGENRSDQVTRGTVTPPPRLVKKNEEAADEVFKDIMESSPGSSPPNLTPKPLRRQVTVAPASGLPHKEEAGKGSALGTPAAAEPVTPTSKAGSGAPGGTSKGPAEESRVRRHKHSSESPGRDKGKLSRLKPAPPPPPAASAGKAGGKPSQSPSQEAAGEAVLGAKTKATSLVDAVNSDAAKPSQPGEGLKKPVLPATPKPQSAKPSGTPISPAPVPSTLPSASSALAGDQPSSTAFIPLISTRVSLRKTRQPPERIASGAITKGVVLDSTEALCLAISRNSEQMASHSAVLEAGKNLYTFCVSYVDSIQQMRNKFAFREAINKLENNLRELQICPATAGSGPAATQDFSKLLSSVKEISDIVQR

| binding | Substance |
| --- | --- |
| binds | Abelson tyrosine kinase c-Abl, endogenous (from UniProt P00519 1-1130) (enzyme) |
| binds | phosphorylated c-Abl (p-c-Abl), endogenous (from UniProt P00519 1-1130) (enzyme) |

Reference: doi:10.1101/2023.05.10.540130
